Entries after “also recorded” stand apart in the source; their conditions may differ. Not every detail of the peptide structures is certain; ends, links or a residue may be inferred.
Tests used:
Mas [1] = biological target: T1, Mas (Rattus norvegicus, UniProt P12526); test: NO release (DAN method) in CHO-Mas transfected cells; format: cell-based; details: Ang-(1-7) 10^−8 to 10^−6 M, over 30 min
T1 construct: expressed in transfected cells
T1 sequence (P12526 1-324): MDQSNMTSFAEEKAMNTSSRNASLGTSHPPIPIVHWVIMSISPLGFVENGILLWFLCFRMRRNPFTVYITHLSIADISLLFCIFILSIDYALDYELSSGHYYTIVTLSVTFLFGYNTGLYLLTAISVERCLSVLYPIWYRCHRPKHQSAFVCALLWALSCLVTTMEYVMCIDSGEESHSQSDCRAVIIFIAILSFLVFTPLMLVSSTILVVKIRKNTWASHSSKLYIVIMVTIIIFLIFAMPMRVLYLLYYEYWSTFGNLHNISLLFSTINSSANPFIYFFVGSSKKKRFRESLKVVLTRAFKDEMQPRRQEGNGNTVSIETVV

Mas [2] = biological target: T1, Mas; test: eNOS (S1177) phosphorylation by western blotting in CHO-Mas transfected cells; format: cell-based; details: Ang-(1-7) 10^−7M, 5 to 30 min
rat corpus cavernosum = test: DAF NO measurement in rat corpus cavernosum, in vivo infusion
[3] = system: erectile function of DOCA-salt hypertensive rats; test: Ganglionic-stimulated CCP/MAP in Sham and DOCA-salt hypertensive rats; format: in vivo, rat; details: for effect on electrically-induced rise of CCP/MAP: local administration
human corpus cavernosum = test: DAF-FM NO measurement in human corpus cavernosum strips; format: cell-based; details: Ang-(1-7) 10.0 nM, 10 minutes
mice corpus cavernosum = test: DAF-FM NO measurement in mouse corpus cavernosum strips (Mas WT and Mas-knockout); format: cell-based; details: Ang-(1-7) 10.0 nM
[4] = system: rat ganglionic-stimulated erectile response; test: Ganglionic-stimulated changes in CCP/MAP after intracavernosal drug administration in anesthetized rats; format: in vivo
Method: Normotensive and DOCA-salt hypertensive rats, Mas−/− and WT mice were anesthetized with intraperitoneal urethane (140 mg/Kg). The rat left femoral artery and mice […] was cannulated for continuous monitoring of mean arterial pressure (MAP). The shaft of the penis was freed of skin and fascia, and the right corpus cavernosum was cannulated by insertion of a 30-gauge needle connected to a pressure transducer, permitting continuous monitoring of corpus cavernosum pressure (CCP) as described elsewhere (see, e.g., T. M. Mills, et al., Biol Reprod 59, 1413 (December, 1998)). The rat left corpus cavernosum was cannulated with 30-gauge needles attached to 10-μL syringes via short lengths of polyethylene (PE)-10 tubing and used for administration of vasoactive drugs. The abdominal cavity was opened, exposing the right major pelvic ganglion (MPG), and silver bipolar electrodes were positioned on it.
To examine the effect of Ang-(1-7) on ganglionic-stimulated changes in CCP/MAP, the nerve was stimulated with range of voltages (0.5, 0.75, 1.0, 1.2, 1.5, 2.0, 2.5 and 3.0 V, 5 msec pulses at a frequency of 12 Hz), following intracavernosal infusion of Ang-(1-7) (at a dose of the 15.5 pmol/Kg/min, 0.5 μL/min). Subsequently, ganglionic stimulation was repeated.
To examine the effect of Mas antagonism on Ang-(1-7) ganglionic-induced CCP/MAP rise, after initial measurements of CCP and MAP, A-779 and Ang-(1-7) were simultaneously administered, and ganglionic stimulation was repeated.
In order to evaluate the role of the Ang-(1-7) released endogenously, it was first determined the minimal stimuli in which the maximal value of the CCP/MAP was achieved. Subsequently (10 minutes later), A-779 (155 pmol/Kg/min) was infused into cavernosal sinuses and the stimulation was repeated.
To evaluate the effect of Ang-(1-7) on ganglionic-stimulated CCP/MAP rise in the presence of NOS inhibition, a sub-maximal stimulus was determined and applied to the MPG. Subsequently, L-NAME (200 μg/Kg) was intracavernously injected and ganglionic stimulation was repeated. Thereafter, Ang-(1-7) was administered and sub-maximal stimulus was applied while CCP/MAP was continuously recorded.

AT1-7(Mas) = biological target: T2, AT1-7(Mas) (Homo sapiens, UniProt P04201); details: receptor AT1-7(Mas); direct or indirect evidence (blocked by A-779); cited from earlier work
T2 sequence (P04201 1-325): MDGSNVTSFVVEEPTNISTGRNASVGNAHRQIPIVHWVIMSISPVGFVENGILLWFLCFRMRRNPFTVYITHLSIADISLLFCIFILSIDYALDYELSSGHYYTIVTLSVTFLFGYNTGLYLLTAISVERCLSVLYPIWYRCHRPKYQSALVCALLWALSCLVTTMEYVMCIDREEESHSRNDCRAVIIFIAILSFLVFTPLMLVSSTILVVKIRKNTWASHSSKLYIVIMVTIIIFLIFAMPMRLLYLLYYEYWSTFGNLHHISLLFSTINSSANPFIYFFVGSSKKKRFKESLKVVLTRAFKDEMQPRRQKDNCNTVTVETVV

Q: With CC[C@H](C)[C@H](NC(=O)[C@H](Cc1ccc(O)cc1)NC(=O)[C@@H](NC(=O)[C@H](CCCNC(=N)N)NC(=O)[C@@H](N)CC(=O)O)C(C)C)C(=O)N[C@@H](Cc1c[nH]cn1)C(=O)N1CCC[C@H]1C(=O)O [Ang-(1-7), Asp-Arg-Val-Tyr-Ile-His-Pro] as the compound, how does the “NO release by CHO-Mas” value (Mas [1]) read?
A: increased NO release; also recorded: dose-dependent manner

Q: What about the eNOS phosphorylation (Mas [2]) of the same compound?
A: phosphorylates eNOS at serine 1179; also recorded: Time-dependent increase

Q: What about the “NO release into corpus cavernosum” value (rat corpus cavernosum; non-stimulated rat, 15.5 pmol/Kg/min during 5 min) of the same compound?
A: substantial NO release

Q: And the “effect on NO release induced by electrical stimulation of MPG” value (rat corpus cavernosum; submaximal stimulus, 15.5 pmol/Kg/min)?
A: markedly potentiated

Q: What about the “effect on erectile function of mineralocorticoid hypertensive rats” value ([3]; DOCA-salt hypertensive rats compared with Sham) of the same compound?
A: normalizing

Q: And the “effect on electrically-induced rise of CCP/MAP” value ([3]; DOCA-salt hypertensive rats)?
A: increased

Q: What about the “effect on electrically-induced rise of CCP/MAP” value ([3]; Sham-operated rats) of the same compound?
A: increased

Q: And the “NO release into corpus cavernosum” value (human corpus cavernosum; human with erectile dysfunction (H-ED))?
A: substantial NO release

Q: What about the “NO release into corpus cavernosum” value (human corpus cavernosum; human without erectile dysfunction (H-WED)) of the same compound?
A: substantial NO release

Q: What about the “NO release into corpus cavernosum” value (mice corpus cavernosum; Mas WT mice) of the same compound?
A: substantial NO release

Q: And the “NO release induced by Ang-(1-7)” value (mice corpus cavernosum; Mas-knockout mice)?
A: absent

Q: And the “effect on erectile response attenuated by NOS inhibition” value ([4]; Ang-(1-7) given after L-NAME, submaximal stimulus)?
A: not overcame

Q: And the “CCP/MAP after injection of Ang-(1-7)” value ([4]; baseline, no stimulation, intracavernosal, mean±SEM, n=10, before: 0.17±0.014, P<0.05)?
A: 0.25±0.027

Q: And the “effect on increase of CCP/MAP ratio induced by ganglionic stimulation” value ([4]; intracavernosal infusion 15.5 pmol/Kg/min)?
A: markedly potentiated

Q: What about the “effect on baseline MAP” value ([4]; intracavernosal injection) of the same compound?
A: without altering baseline MAP

Q: And the Actions (AT1-7(Mas))?
A: Vasodilation; also recorded: Potentiation of BK-induced; also recorded: Anti-arrhythmogenic effect; also recorded: Improvement of post-ischemic; also recorded: Inhibition of cell proliferation

From patent US8575111B2, “Pharmaceutical compositions and methods for treating erectile dysfunction” (Universidade Federal de Minas Garais-UFMG, priority 2007, dated 2013)
